Reference: ChEMBL document CHEMBL4316593 (Eur J Med Chem, 2019)
This continues a long series; more values of the same kind are listed elsewhere.

Assays:
Format in all cases: cell-based
Conditions in all cases: U-87MG ATCC
[1] = Inhibition of RTK/PI3K/AKT/mTOR signaling in human U87 cells assessed as down regulation of CEP85 gene expression at cytotoxic IC50 measured after 48 hrs relative to control
[2] = Inhibition of RTK/PI3K/AKT/mTOR signaling in human U87 cells assessed as up regulation of ATPase Na+/K+ transporting subunit alpha 3 gene expression at cytotoxic IC50 measured after 48 hrs relative to control
[3] = Inhibition of RTK/PI3K/AKT/mTOR signaling in human U87 cells assessed as down regulation of ZEB1 gene expression at cytotoxic IC50 measured after 48 hrs relative to control
[4] = Inhibition of RTK/PI3K/AKT/mTOR signaling in human U87 cells assessed as down regulation of CHEK1 gene expression at cytotoxic IC50 measured after 48 hrs relative to control
[5] = Inhibition of RTK/PI3K/AKT/mTOR signaling in human U87 cells assessed as up regulation of integrin subunit alpha 5 gene expression at cytotoxic IC50 measured after 48 hrs relative to control
[6] = Inhibition of RTK/PI3K/AKT/mTOR signaling in human U87 cells assessed as up regulation of membrane associated ring-CH-type finger 9 gene expression at cytotoxic IC50 measured after 48 hrs relative to control
[7] = Inhibition of RTK/PI3K/AKT/mTOR signaling in human U87 cells assessed as down regulation of MPZL3 gene expression at cytotoxic IC50 measured after 48 hrs relative to control
[8] = Inhibition of RTK/PI3K/AKT/mTOR signaling in human U87 cells assessed as up regulation of protease, serine 16 gene expression at cytotoxic IC50 measured after 48 hrs relative to control
[9] = Inhibition of RTK/PI3K/AKT/mTOR signaling in human U87 cells assessed as up regulation of RNA polymerase I subunit C gene expression at cytotoxic IC50 measured after 48 hrs relative to control
[10] = Inhibition of RTK/PI3K/AKT/mTOR signaling in human U87 cells assessed as up regulation of PCK2 gene expression at cytotoxic IC50 measured after 48 hrs relative to control
[11] = Inhibition of RTK/PI3K/AKT/mTOR signaling in human U87 cells assessed as up regulation of adaptor related protein complex 1 sigma 3 subunit gene expression at cytotoxic IC50 measured after 48 hrs relative to control
[12] = Inhibition of RTK/PI3K/AKT/mTOR signaling in human U87 cells assessed as down regulation of TRAPPC11 gene expression at cytotoxic IC50 measured after 48 hrs relative to control
[13] = Inhibition of RTK/PI3K/AKT/mTOR signaling in human U87 cells assessed as down regulation of ID2 gene expression at cytotoxic IC50 measured after 48 hrs relative to control
[14] = Inhibition of RTK/PI3K/AKT/mTOR signaling in human U87 cells assessed as up regulation of chromosome 20 open reading frame 96 gene expression at cytotoxic IC50 measured after 48 hrs relative to control
[15] = Inhibition of RTK/PI3K/AKT/mTOR signaling in human U87 cells assessed as down regulation of MCL1 gene expression at cytotoxic IC50 measured after 48 hrs relative to control
[16] = Inhibition of RTK/PI3K/AKT/mTOR signaling in human U87 cells assessed as up regulation of SEMA3B gene expression at cytotoxic IC50 measured after 48 hrs relative to control
[17] = Inhibition of RTK/PI3K/AKT/mTOR signaling in human U87 cells assessed as up regulation of SH3TC2 gene expression at cytotoxic IC50 measured after 48 hrs relative to control
[18] = Inhibition of RTK/PI3K/AKT/mTOR signaling in human U87 cells assessed as down regulation of CLTB gene expression at cytotoxic IC50 measured after 48 hrs relative to control
[19] = Inhibition of RTK/PI3K/AKT/mTOR signaling in human U87 cells assessed as down regulation of ASNS gene expression at cytotoxic IC50 measured after 48 hrs relative to control
[20] = Inhibition of RTK/PI3K/AKT/mTOR signaling in human U87 cells assessed as up regulation of phosphatidylinositol-5-phosphate 4-kinase type 2 alpha gene expression at cytotoxic IC50 measured after 48 hrs relative to control
[21] = Inhibition of RTK/PI3K/AKT/mTOR signaling in human U87 cells assessed as up regulation of septin 5 gene expression at cytotoxic IC50 measured after 48 hrs relative to control
[22] = Inhibition of RTK/PI3K/AKT/mTOR signaling in human U87 cells assessed as down regulation of TAF7 gene expression at cytotoxic IC50 measured after 48 hrs relative to control
[23] = Inhibition of RTK/PI3K/AKT/mTOR signaling in human U87 cells assessed as down regulation of MYBL2 gene expression at cytotoxic IC50 measured after 48 hrs relative to control
[24] = Inhibition of RTK/PI3K/AKT/mTOR signaling in human U87 cells assessed as up regulation of CDC42 effector protein 3 gene expression at cytotoxic IC50 measured after 48 hrs relative to control
[25] = Inhibition of RTK/PI3K/AKT/mTOR signaling in human U87 cells assessed as up regulation of peptidylprolyl isomerase B gene expression at cytotoxic IC50 measured after 48 hrs relative to control
[26] = Inhibition of RTK/PI3K/AKT/mTOR signaling in human U87 cells assessed as up regulation of KIAA1522 gene expression at cytotoxic IC50 measured after 48 hrs relative to control
[27] = Inhibition of RTK/PI3K/AKT/mTOR signaling in human U87 cells assessed as down regulation of ARFGEF1 gene expression at cytotoxic IC50 measured after 48 hrs relative to control
[28] = Inhibition of RTK/PI3K/AKT/mTOR signaling in human U87 cells assessed as down regulation of SLC25A19 gene expression at cytotoxic IC50 measured after 48 hrs relative to control
[29] = Inhibition of RTK/PI3K/AKT/mTOR signaling in human U87 cells assessed as down regulation of ZNF562 gene expression at cytotoxic IC50 measured after 48 hrs relative to control
[30] = Inhibition of RTK/PI3K/AKT/mTOR signaling in human U87 cells assessed as down regulation of INPP4A gene expression at cytotoxic IC50 measured after 48 hrs relative to control
[31] = Inhibition of RTK/PI3K/AKT/mTOR signaling in human U87 cells assessed as down regulation of PHTF1 gene expression at cytotoxic IC50 measured after 48 hrs relative to control
[32] = Inhibition of RTK/PI3K/AKT/mTOR signaling in human U87 cells assessed as up regulation of IRS1 gene expression at cytotoxic IC50 measured after 48 hrs relative to control

CC(=O)C(=NNc1ccccc1C#N)C(C)=O
log2FC [1]: -0.503 | log2FC [2]: 1.03 | log2FC [3]: -1.62 | log2FC [4]: -0.679 | log2FC [5]: 0.936 | log2FC [6]: 1.34 | log2FC [7]: -0.834 | log2FC [8]: 1.26 | log2FC [9]: 0.686 | log2FC [10]: 0.535 | log2FC [11]: 0.897 | log2FC [12]: -0.97 | log2FC [13]: -1.05 | log2FC [14]: 0.957 | log2FC [15]: -0.826 | log2FC [16]: 2.4 | log2FC [17]: 1.65 | log2FC [18]: -0.686 | log2FC [19]: -1.39 | log2FC [20]: 0.807 | log2FC [21]: 1.57 | log2FC [22]: -0.832 | log2FC [23]: -1.61 | log2FC [24]: 0.838 | log2FC [25]: 1.12 | log2FC [26]: 0.908 | log2FC [27]: -0.637 | log2FC [28]: -1.62 | log2FC [29]: -1.14 | log2FC [30]: -0.819 | log2FC [31]: -1.36 | log2FC [32]: 1.82
